Here are results for one molecule from publication doi:10.64898/2025.12.17.694949, “Chiral inversion mutagenesis identifies geometrically constrained residues within self-associating low-complexity domains” (bioRxiv, 2025).

These are yes or no findings as the source states them, for the method shown. Some binding calls cover weakened binding; strength is not graded here.

Assay [1] has as its target synthetic NEFL head domain, wild-type (UniProt P07196). In words: SDS-PAGE (smearing from higher-order oligomers); SDS-PAGE characterization of the synthetic 5xD ChIM NEFL head domain library; both purified.
The target is the same in assay [2]. In words: turbidity (absorbance at 395 nm); synthetic NEFL head domain 5xD ChIM library, 100 μM LCD (n=3); both purified.

B1: synthetic NEFL head domain, wild-type (domain or fragment, UniProt P07196 2-74)
chain: SSFSYEPYYSTSYKRRYVETPRVHISSVRCGYSTARSAYSSYSAPVSSSLSVRRSYSSSSGSLMPSLENLELS
For the molecule B1, the binding entry in assay [1] and in assay [2] was “binds” throughout.
